The values that follow come from paper doi:10.1101/2025.10.14.682279.

Sequences of proteins named here, by UniProt entry; tags and fusion partners are left off. A change or cut given only in a name is not applied to a line headed by its entry.
UniProt P56524: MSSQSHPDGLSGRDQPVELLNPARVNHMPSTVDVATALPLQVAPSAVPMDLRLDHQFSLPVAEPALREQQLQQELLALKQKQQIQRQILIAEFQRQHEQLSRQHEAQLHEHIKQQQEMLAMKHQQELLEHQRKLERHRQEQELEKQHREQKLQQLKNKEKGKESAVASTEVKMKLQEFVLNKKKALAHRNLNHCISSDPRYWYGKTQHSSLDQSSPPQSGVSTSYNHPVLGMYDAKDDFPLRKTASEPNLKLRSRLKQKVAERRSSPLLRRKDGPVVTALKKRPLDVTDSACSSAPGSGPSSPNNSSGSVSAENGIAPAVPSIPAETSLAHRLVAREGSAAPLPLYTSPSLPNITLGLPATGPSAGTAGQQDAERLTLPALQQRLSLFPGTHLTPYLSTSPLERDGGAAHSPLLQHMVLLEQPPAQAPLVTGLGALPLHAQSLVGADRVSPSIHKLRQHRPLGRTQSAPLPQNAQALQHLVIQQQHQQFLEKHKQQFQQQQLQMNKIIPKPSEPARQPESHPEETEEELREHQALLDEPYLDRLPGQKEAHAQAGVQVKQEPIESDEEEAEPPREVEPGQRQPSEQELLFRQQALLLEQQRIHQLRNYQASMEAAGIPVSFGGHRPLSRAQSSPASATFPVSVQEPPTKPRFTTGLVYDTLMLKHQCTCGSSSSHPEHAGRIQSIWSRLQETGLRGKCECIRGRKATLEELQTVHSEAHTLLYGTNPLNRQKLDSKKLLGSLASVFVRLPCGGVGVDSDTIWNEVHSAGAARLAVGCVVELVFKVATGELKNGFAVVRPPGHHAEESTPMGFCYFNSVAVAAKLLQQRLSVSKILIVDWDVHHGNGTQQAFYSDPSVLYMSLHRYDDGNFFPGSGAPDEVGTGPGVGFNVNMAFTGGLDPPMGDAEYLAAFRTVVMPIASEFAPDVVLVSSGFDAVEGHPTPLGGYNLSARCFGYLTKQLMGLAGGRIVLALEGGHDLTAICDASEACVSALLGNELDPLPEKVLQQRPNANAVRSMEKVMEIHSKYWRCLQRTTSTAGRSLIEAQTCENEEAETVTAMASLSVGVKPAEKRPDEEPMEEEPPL
UniProt O15379: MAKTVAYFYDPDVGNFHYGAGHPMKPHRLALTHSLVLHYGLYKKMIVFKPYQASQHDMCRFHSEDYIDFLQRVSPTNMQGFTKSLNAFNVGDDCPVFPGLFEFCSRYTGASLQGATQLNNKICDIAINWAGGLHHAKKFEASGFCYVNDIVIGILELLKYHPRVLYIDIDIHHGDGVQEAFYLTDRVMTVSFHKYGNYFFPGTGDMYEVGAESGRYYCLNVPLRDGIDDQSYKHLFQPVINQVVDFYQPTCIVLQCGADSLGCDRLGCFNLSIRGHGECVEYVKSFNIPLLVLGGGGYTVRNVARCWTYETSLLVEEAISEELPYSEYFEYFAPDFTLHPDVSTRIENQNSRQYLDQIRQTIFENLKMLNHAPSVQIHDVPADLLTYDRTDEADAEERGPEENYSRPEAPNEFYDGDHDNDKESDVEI

No constants are given. Whether binding was seen depends on the method and setting. Binding seen in cells or lysates may run through a third protein.

The target of assay [1] is Flag-HDAC4-M902Hfs (human) (UniProt P56524). In words: co-IP.
Assay [2] deals with Flag-HDAC4-M902Wfs (human) (UniProt P56524). In words: co-IP.

Take HDAC3 (from UniProt O15379 1-428): the binding result in assay [1] and in assay [2] was “no binding” each time.
